From paper PMC3375352 (Journal of Medicinal Chemistry, 2012)

Legend:
Format in all cases: cell-based
[1] = test system: MCF-7 (human breast cancer); test: MTT cytotoxicity assay, MCF-7; settings: read-out: IC50 MCF-7, 72 h continuous treatment
[2] = test system: HeLa (human cervical cancer); test: MTT cytotoxicity assay, HeLa; settings: read-out: IC50 HeLa, 72 h continuous treatment
A549 (human lung cancer) = test: MTT cytotoxicity assay, A549; settings: read-out: IC50 A549, 72 h continuous treatment

N.N.[Cl][Pt][Cl] [cisplatin, cis-diamminedichloroplatinum(II)]
IC50 [1]: 14 ± 3 µM
IC50 [2]: 2.1 ± 0.1 µM
IC50 (A549 (human lung cancer)): 3.2 ± 0.6 µM
